Assay results from article PMC2694282.
Results are given in words; binding and its absence hold for the method and conditions named. In cells and extracts the contact can be indirect. Some entries that bind do so weakly or less than the wild type.

Amino acid sequences for entries named in this document (tags omitted). A change or cut given only in a name is not applied to a line headed by its entry.
UniProt P09936: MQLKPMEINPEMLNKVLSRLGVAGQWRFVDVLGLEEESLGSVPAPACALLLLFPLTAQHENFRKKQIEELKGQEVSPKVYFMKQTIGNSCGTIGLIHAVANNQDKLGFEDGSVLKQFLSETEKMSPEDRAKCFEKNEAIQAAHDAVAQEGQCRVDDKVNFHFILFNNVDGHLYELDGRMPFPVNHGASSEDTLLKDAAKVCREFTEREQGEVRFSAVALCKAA
UniProt P35222: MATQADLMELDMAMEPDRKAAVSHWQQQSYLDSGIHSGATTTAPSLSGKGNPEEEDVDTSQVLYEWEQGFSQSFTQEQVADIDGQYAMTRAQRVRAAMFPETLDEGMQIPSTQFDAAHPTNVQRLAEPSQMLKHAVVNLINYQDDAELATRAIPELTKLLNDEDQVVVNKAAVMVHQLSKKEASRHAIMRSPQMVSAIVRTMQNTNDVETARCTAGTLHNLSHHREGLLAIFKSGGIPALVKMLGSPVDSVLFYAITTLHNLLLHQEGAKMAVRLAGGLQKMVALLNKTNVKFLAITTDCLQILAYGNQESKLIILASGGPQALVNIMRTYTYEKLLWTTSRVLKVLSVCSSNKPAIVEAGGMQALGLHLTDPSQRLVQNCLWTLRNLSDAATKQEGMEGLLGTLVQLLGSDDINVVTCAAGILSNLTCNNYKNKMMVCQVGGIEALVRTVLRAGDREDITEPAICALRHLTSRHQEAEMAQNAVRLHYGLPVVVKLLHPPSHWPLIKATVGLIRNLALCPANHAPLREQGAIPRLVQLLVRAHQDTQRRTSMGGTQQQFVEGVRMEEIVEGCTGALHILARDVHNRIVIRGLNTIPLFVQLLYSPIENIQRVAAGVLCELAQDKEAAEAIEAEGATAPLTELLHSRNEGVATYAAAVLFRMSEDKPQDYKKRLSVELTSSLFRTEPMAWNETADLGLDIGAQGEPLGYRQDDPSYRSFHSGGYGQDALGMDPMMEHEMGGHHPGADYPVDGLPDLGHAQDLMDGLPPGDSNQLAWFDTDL

Columns and labels:
HA-UCH L1 H161D = HA-UCH L1 H161D (UniProt P09936); test: co-IP; 293 cells transfected with HA-UCH L1 wild type or mutants; UCH L1 immunoprecipitated with HA antibody 48 h after transfection; blot probed with β-catenin antibody
HA-UCH L1 wild type = HA-UCH L1 wild type (UniProt P09936); test: as above
HA-UCH L1 C90S = HA-UCH L1 C90S (UniProt P09936); test: as above
[1] = biological target: Ubiquitin C-terminal Hydrolase L1 (endogenous) (human (endogenous in KR4 and 293)) (UniProt P09936); test: co-IP; endogenous β-catenin or UCH L1 immunoprecipitated with specific antibodies from KR4 and 293 cell lysates (50 mM Tris-HCl pH 7.6, 1% NP-40, 0.25% Na-deoxycholate, 1 mM EDTA), protein A/G Sepharose, 4°C; Western blot; normal mouse and rabbit immunoglobulins as controls

binding (HA-UCH L1 H161D): no binding
binding (HA-UCH L1 wild type): binds
binding (HA-UCH L1 C90S): no binding
binding [1]: binds
Substance: β-catenin (endogenous) (from UniProt P35222 1-781)
